Paper PMC8522147
These are yes or no findings as the source states them, for the method shown. In cells and extracts the contact can be indirect. Some binding calls cover weakened binding; strength is not graded here.

Chains of the proteins cited; added tags and fusions are not shown.
UniProt P14618: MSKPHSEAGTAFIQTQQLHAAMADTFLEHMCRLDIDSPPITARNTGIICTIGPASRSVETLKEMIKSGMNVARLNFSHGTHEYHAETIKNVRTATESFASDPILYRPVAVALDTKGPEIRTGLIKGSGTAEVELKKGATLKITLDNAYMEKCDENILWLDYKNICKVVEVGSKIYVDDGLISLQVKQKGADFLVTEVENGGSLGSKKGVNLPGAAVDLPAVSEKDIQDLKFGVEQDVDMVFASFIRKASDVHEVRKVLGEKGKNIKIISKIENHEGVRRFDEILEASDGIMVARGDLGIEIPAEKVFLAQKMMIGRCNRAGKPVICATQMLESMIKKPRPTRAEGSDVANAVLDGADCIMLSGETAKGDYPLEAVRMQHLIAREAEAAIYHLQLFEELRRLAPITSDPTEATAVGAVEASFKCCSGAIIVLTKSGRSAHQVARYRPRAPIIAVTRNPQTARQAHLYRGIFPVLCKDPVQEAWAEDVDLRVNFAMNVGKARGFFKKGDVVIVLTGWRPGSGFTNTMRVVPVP

What was measured:
[1] = molecular target: T1, Kinesin family member 2 C (KIF2C) (human (endogenous in MCF7/ADR)) (UniProt Q99661); experiment: co-IP; as a1, MCF7/ADR cells overexpressing TBX15 (pCMV-TBX15), 1 ug/ml DOX for 48 h; precipitated with anti-KIF2C antibody
T1 sequence: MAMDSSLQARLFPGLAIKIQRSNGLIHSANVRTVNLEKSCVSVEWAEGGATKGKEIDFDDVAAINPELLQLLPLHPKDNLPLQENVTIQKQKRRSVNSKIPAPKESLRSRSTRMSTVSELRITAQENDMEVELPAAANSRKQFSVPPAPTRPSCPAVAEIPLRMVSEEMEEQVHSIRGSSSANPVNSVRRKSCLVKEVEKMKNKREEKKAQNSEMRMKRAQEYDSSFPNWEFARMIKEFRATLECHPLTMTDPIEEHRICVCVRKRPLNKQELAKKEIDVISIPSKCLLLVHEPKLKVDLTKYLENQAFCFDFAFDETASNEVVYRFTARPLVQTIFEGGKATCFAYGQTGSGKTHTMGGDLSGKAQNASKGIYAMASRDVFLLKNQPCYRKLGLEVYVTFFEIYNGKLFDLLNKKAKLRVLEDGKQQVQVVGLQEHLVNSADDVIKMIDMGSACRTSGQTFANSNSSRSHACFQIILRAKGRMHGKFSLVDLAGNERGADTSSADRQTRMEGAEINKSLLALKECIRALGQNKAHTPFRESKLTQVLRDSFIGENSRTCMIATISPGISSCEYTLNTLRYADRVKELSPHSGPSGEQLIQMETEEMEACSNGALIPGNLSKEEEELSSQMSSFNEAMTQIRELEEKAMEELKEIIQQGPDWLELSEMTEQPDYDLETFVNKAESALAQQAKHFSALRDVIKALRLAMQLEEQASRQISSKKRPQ

[2] = molecular target: T1, Kinesin family member 2 C (KIF2C) (human (endogenous in MCF7/ADR)); experiment: co-IP; MCF7/ADR lysates in NETN buffer (20 mM Tris pH 8.0, 100 mM NaCl, 1 mM EDTA, 0.5% NP-40), 1000 ug lysate, Protein G Sepharose, anti-KIF2C or anti-PKM2 antibody; cells transfected with pCMV, siNC, siTBX15, KIF2C or siKIF2C; 1 ug/ml DOX for 48 h
[3] = molecular target: T1, Kinesin family member 2 C (KIF2C) (human (endogenous in MCF7/ADR)); experiment: co-IP; as a1, MCF7/ADR cells overexpressing TBX15 (pCMV-TBX15), 1 ug/ml DOX for 48 h; precipitated with anti-KIF2C antibody; remark: listed apart in the source

binding [1]: binds
binding [2]: binds
Substance: Pyruvate kinase M2 (PKM2) (from UniProt P14618 1-531) (enzyme)
binding [3]: no binding (condition: with TBX15 overexpressed)
